## Primary screen of a compound library

Data taken from ChEMBL document CHEMBL3988442, “University of Dundee, Small-Polar-MMV Screening Library” (2021).

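Viability assay of Plasmodium falciparum sporozoites; the read-out is not stated. The concentration is filed as 10 mM, unlikely as a test dose, so the dose is not known. The record gives no direction; compounds that gave an IC50 in retests scored well above the rest, so higher reads as lower viability. Strong results were mostly tested again. About 34,000 compounds were tested under these conditions; 0.84% (about 280) showed 50% or more at least once.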

Each number is a percent effect as filed. The record does not define 0% and 100%; most values in the screen are far below 50% and negative numbers occur (in some assays of this library far below -100). This is an unselected part of the compounds tested.

Compound,Percent Effect
O=C(N1CCCC1)N1Cc2nccn2CC(Cn2ncccc2=O)C1 (stereo not given),-0.3373%
COc1ccc(-n2ccc(CNCc3ccc(OC)c(O)c3)n2)cc1,-4.281%
Cc1ccc(C)c(C(C)NC(=O)N2CCC(n3cncn3)CC2)c1 (stereo not given),5.346%
CCS(=O)(=O)CCNC(=O)c1ccc(-c2ccc(C)cc2)cc1F,-18.97%
O=C(C1CCOC1)N1CCC2(CC1)CN(Cc1nccs1)CCO2 (stereo not given),-17.48%
CN1CCN(CC2(O)CCCN(C(=O)Cc3cccc(O)c3)CC2)CC1 (stereo not given),12.05%
CC(C)(C)c1n[nH]c(C2CN(C(=O)CCC3CC3)CCO2)n1 (stereo not given),12.08%
CN(C)C(C)(C)CNC(=O)C(C)(C)c1ccccc1F,-14.33%
Cc1cc2c(=O)n3c(nc2s1)CCN(C(=O)c1nn(C)cc1Cl)CC3,-13.24%
CCOCCn1c(=O)[nH]c2cc(C(=O)N(C)Cc3cnn(C)c3)ccc21,1.597%
O=C(O)c1cc(S(=O)(=O)Nc2cc(F)ccc2F)cc2c1OCCO2,-7.579%
Cn1ccc(CN2CCCC23CCN(Cc2cccc(F)c2)CC3)n1.O=C(O)C(F)(F)F.O=C(O)C(F)(F)F,15.94%
Cc1ccc(CN(CCCn2ccnc2)Cc2c[nH]nc2C(C)(C)C)s1.O=C(O)CC(O)(CC(=O)O)C(=O)O,0.9675%
O=C1NC2(CCN(CC(=O)N3CCOCC3)CC2)Nc2ccccc21,-8.356%
CCn1cc(S(=O)(=O)N2CCCCCC2c2cc(C)on2)cn1 (stereo not given),-1.834%
CC(C)(CNc1ccccc1S(=O)(=O)C(F)F)N1CCOCC1,-0.7769%
CC(C)N1CCC(Cc2cncc(-c3cccc(C(=O)O)c3)n2)C1 (stereo not given),3.795%
CC(NC(=O)CSCC(N)=O)c1ccccc1Oc1ccccc1 (stereo not given),-5.606%
Cl.O=C(NCCO)C1(Cc2ccccc2-c2cccnc2)CCOCC1,0.5921%
Cc1nn(C)c(C)c1CC(=O)N1CCc2nnc(N(C)C)cc2C1,-4.526%
NC(=O)C1CCN(C(=O)c2cccc(CN3CCOCC3)c2)CC1,-4.927%
COCc1cn([C@@H]2c3ccccc3C3(CCNCC3)[C@H]2O)nn1,-2.688%
O=C(C[S+]([O-])c1ccc(F)c(F)c1)NCc1cc(F)cc(F)c1 (stereo not given),1.665%
O=C(CSc1ccc(Br)cc1)NS(=O)(=O)c1ccc2c(c1)OCCO2,4.535%
COCCCN(C)Cc1nc2c(cnn2C)c(=O)[nH]1,4.482%
O=C(O)C(F)(F)F.[H][C@@]12C[C@@H](C(=O)NC)N(C)[C@]1([H])CN(C(=O)c1ccco1)C2,10.06%
O=c1[nH]c(-c2ccncc2)ncc1-c1ccnc(NC2CCCCC2)n1,21.93%
Cc1ccc(C2(CN3CCCC3)CCNCC2)nc1,-10.24%
COCc1cc(NCc2cc(F)ccc2F)n2nccc2n1,-4.368%
Cc1ccccc1SCC(=O)NS(=O)(=O)c1ccc2c(c1)OCCO2,0.9599%
COC(=O)c1cccc(NS(=O)(=O)c2cnc(NC(C)=O)s2)c1,12.5%
Cn1cc(N2CC3(CCN(Cc4cccnc4)CC3)OCC2=O)cn1.O=C(O)C(F)(F)F.O=C(O)C(F)(F)F,-4.875%
Cc1ccc(CN(C)CC(=O)NC2(C)CCS(=O)(=O)C2)cc1 (stereo not given),-12.75%
CC(=O)c1ccc(-n2c(C)cn(CCC(=O)NC(N)=O)c2=O)cc1,-14.08%
CCn1cnnc1CNC(=O)N(C)Cc1ccc(F)c(F)c1,0.32%
Cc1nc(C2CCCN(C(=O)CO)C2)cc(N2CCOCC2)n1 (stereo not given),0.3119%
CCn1c(C2CCCN(C(=O)C(C)(C)OC)C2)nn(CCN(C)C)c1=O (stereo not given),2.544%
CCCN1CCC(c2nc3ccc(-c4ccncc4)cn3n2)CC1.O=C(O)C(F)(F)F.O=C(O)C(F)(F)F,7.426%
CCN1CC2(CC1=O)CN(C(C)=O)CCN(C(=O)NC(C)C)C2 (stereo not given),-2.654%
CC(=O)N1CCCC(C(=O)NCCc2ccc(F)c(Br)c2)C1 (stereo not given),-18.26%

For reference, 3 entries once more:

{"compound": "COc1ccc(-n2ccc(CNCc3ccc(OC)c(O)c3)n2)cc1", "Percent Effect": -4.281}
{"compound": "CCn1cc(S(=O)(=O)N2CCCCCC2c2cc(C)on2)cn1", "stereo": "stereo not given", "Percent Effect": -1.834}
{"compound": "CN(C)C(C)(C)CNC(=O)C(C)(C)c1ccccc1F", "Percent Effect": -14.33}